{"source": "PubChem BioAssay AID1259405 (NCATS, 2018)", "purpose": "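Silenced genes that increase secreted GFP made by CHO cells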 (primary screen)", "cells": "Chinese hamster CHO-K1 ovary cells with stable secreted eGFP expression", "reagents": "single siRNA against mouse genes, 0.8 pmol siRNA per well (2 µl of 400 nM stock)", "duration": "3 days", "measured": "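Percent of the per-plate non-targeting control median for intracellular GFP per well by laser scanning cytometry and for cell viability by ATP luminescence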", "scale": "GFP, % of control: higher = more GFP per well, higher productivity; viability (ATP), % of control: higher = more viable cells (more ATP)", "call rule": "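Called active when intracellular GFP, relative to negative control, is at or above 120%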", "note": "Here is one part, drawn at random, of about 50,000 reagents tested. Over the whole deposit, about 4,000 (8%) got an active call. 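Mouse siRNA library applied to hamster cells; one well for each siRNA.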 Unmarked entries are inactive. Reagent sequences are not shown."}
The first 5 records, ahead of the listing:
{"gene symbol": "Trit1", "PubChem SID": "SID363570587", "GFP, % of control": "208 (active)", "viability (ATP), % of control": 92.6}
{"gene symbol": "Trit1", "PubChem SID": "SID363579387", "GFP, % of control": 86, "viability (ATP), % of control": 93.3}
{"gene symbol": "Trit1", "PubChem SID": "SID363583259", "GFP, % of control": 101, "viability (ATP), % of control": 86.9}
{"gene symbol": "Trit1", "PubChem SID": "SID363589798", "GFP, % of control": 89.5, "viability (ATP), % of control": 70.2}
{"gene symbol": "Trit1", "PubChem SID": "SID363589799", "GFP, % of control": 76.1, "viability (ATP), % of control": 77.5}

The listing, repeating the preview:
{"gene symbol": "Trit1", "PubChem SID": "SID363570587", "GFP, % of control": "208 (active)", "viability (ATP), % of control": 92.6}
{"gene symbol": "Trit1", "PubChem SID": "SID363579387", "GFP, % of control": 86, "viability (ATP), % of control": 93.3}
{"gene symbol": "Trit1", "PubChem SID": "SID363583259", "GFP, % of control": 101, "viability (ATP), % of control": 86.9}
{"gene symbol": "Trit1", "PubChem SID": "SID363589798", "GFP, % of control": 89.5, "viability (ATP), % of control": 70.2}
{"gene symbol": "Trit1", "PubChem SID": "SID363589799", "GFP, % of control": 76.1, "viability (ATP), % of control": 77.5}
{"gene symbol": "Trit1", "PubChem SID": "SID363589800", "GFP, % of control": 95.6, "viability (ATP), % of control": 76.2}
{"gene symbol": "Adcy6", "PubChem SID": "SID363573076", "GFP, % of control": 43.9, "viability (ATP), % of control": 60.6}
{"gene symbol": "Adcy6", "PubChem SID": "SID363577652", "GFP, % of control": 54.4, "viability (ATP), % of control": 77.6}
{"gene symbol": "Adcy6", "PubChem SID": "SID363581172", "GFP, % of control": 70.5, "viability (ATP), % of control": 75.2}
{"gene symbol": "Gtf2f1", "PubChem SID": "SID363573291", "GFP, % of control": 97.5, "viability (ATP), % of control": 62.1}
{"gene symbol": "Gtf2f1", "PubChem SID": "SID363588530", "GFP, % of control": 93.4, "viability (ATP), % of control": 100}
{"gene symbol": "Gpr146", "PubChem SID": "SID363539806", "GFP, % of control": 77.5, "viability (ATP), % of control": 82.2}
{"gene symbol": "Gpr146", "PubChem SID": "SID363561107", "GFP, % of control": 99.6, "viability (ATP), % of control": 117}
{"gene symbol": "Gpr146", "PubChem SID": "SID363565197", "GFP, % of control": 24.1, "viability (ATP), % of control": 19.5}
{"gene symbol": "Gpr146", "PubChem SID": "SID363571174", "GFP, % of control": 104, "viability (ATP), % of control": 78.6}
{"gene symbol": "Gpr146", "PubChem SID": "SID363571526", "GFP, % of control": 116, "viability (ATP), % of control": 85.8}
{"gene symbol": "Gpr146", "PubChem SID": "SID363571878", "GFP, % of control": 101, "viability (ATP), % of control": 53.1}
{"gene symbol": "Hrnr", "PubChem SID": "SID363554994", "GFP, % of control": 73.2, "viability (ATP), % of control": 63.6}
{"gene symbol": "Hrnr", "PubChem SID": "SID363568441", "GFP, % of control": 54.9, "viability (ATP), % of control": 49.5}
{"gene symbol": "Hrnr", "PubChem SID": "SID363586500", "GFP, % of control": 87.9, "viability (ATP), % of control": 89.9}
{"gene symbol": "Or7c70", "PubChem SID": "SID363554445", "GFP, % of control": 57.9, "viability (ATP), % of control": 48.3}
{"gene symbol": "Or7c70", "PubChem SID": "SID363567892", "GFP, % of control": 88.1, "viability (ATP), % of control": 57.4}
{"gene symbol": "Or7c70", "PubChem SID": "SID363585249", "GFP, % of control": 78, "viability (ATP), % of control": 84.7}
{"gene symbol": "R74862", "PubChem SID": "SID363554838", "GFP, % of control": 36.3, "viability (ATP), % of control": 50.7}
{"gene symbol": "R74862", "PubChem SID": "SID363568285", "GFP, % of control": 82.1, "viability (ATP), % of control": 77.8}
{"gene symbol": "R74862", "PubChem SID": "SID363586344", "GFP, % of control": 37.2, "viability (ATP), % of control": 52.7}
{"gene symbol": "Matn1", "PubChem SID": "SID363582359", "GFP, % of control": 89.6, "viability (ATP), % of control": 122}
{"gene symbol": "Matn1", "PubChem SID": "SID363584119", "GFP, % of control": 58.4, "viability (ATP), % of control": 70.2}
{"gene symbol": "Or10x4", "PubChem SID": "SID363544635", "GFP, % of control": 48, "viability (ATP), % of control": 39.6}
{"gene symbol": "Or10x4", "PubChem SID": "SID363550963", "GFP, % of control": 72.9, "viability (ATP), % of control": 64.9}
{"gene symbol": "Or10x4", "PubChem SID": "SID363557512", "GFP, % of control": 54.6, "viability (ATP), % of control": 46.9}
{"gene symbol": "Trim44", "PubChem SID": "SID363556259", "GFP, % of control": 115, "viability (ATP), % of control": 61}
{"gene symbol": "Trim44", "PubChem SID": "SID363586709", "GFP, % of control": 65.2, "viability (ATP), % of control": 78.3}
{"gene symbol": "Trim44", "PubChem SID": "SID363588817", "GFP, % of control": 64.8, "viability (ATP), % of control": 61.4}
{"gene symbol": "Aspa", "PubChem SID": "SID363584502", "GFP, % of control": 75.1, "viability (ATP), % of control": 75.9}
{"gene symbol": "Aspa", "PubChem SID": "SID363589532", "GFP, % of control": "269 (active)", "viability (ATP), % of control": 110}
{"gene symbol": "Clec2i", "PubChem SID": "SID363544223", "GFP, % of control": 89.3, "viability (ATP), % of control": 60.9}
{"gene symbol": "Clec2i", "PubChem SID": "SID363550551", "GFP, % of control": 76.1, "viability (ATP), % of control": 82.9}
{"gene symbol": "Clec2i", "PubChem SID": "SID363557100", "GFP, % of control": 118, "viability (ATP), % of control": 91.2}
{"gene symbol": "Slc16a1", "PubChem SID": "SID363574631", "GFP, % of control": 85.9, "viability (ATP), % of control": 61}
{"gene symbol": "Slc16a1", "PubChem SID": "SID363575687", "GFP, % of control": 54.7, "viability (ATP), % of control": 71.7}
{"gene symbol": "Slc16a1", "PubChem SID": "SID363580263", "GFP, % of control": 70.1, "viability (ATP), % of control": 78.5}
